Experimental data as given in doi:10.1101/2024.07.09.602822.
Results are given in words; binding and its absence hold for the method and conditions named. For some of these results: In cells and extracts the contact can be indirect. Some binding calls cover weakened binding; strength is not graded here. For some of these results: Sequences can lack the tags named with a protein.

By UniProt entry, the sequences of proteins in these tests, tags left out.
UniProt P67936: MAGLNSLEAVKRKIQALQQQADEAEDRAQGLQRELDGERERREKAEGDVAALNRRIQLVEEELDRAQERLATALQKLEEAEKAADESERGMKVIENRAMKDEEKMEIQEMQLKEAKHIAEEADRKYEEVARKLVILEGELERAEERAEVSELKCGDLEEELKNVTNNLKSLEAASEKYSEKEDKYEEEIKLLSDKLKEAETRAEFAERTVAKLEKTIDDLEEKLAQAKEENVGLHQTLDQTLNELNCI
UniProt P14618: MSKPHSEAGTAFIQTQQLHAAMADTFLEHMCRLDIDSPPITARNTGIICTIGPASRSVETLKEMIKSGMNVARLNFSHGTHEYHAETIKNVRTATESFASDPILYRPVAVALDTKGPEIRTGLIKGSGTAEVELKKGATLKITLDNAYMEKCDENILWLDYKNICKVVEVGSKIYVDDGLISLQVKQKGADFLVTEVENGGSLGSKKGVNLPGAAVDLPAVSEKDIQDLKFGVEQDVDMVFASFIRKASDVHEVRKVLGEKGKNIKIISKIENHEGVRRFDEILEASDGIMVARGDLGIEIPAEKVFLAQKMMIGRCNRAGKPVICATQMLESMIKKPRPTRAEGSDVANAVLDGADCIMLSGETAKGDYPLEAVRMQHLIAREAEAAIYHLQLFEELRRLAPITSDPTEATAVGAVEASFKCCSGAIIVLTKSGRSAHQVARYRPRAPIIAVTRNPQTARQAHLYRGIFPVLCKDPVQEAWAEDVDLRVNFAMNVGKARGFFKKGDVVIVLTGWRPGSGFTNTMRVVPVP

Assays:
TPM4-GB = TPM4-GB (UniProt P67936); experiment: fluorescent protein exchange
[1] = biological target: TPM4-AcGFP (Tropomyosin 4 fused to AcGFP) (UniProt P67936); experiment: proximity ligation
TPM4-GFP 1-10 = TPM4-GFP 1-10 (UniProt P67936); experiment: split reporter

Molecule | binding (TPM4-GB) | further results
PKM2-RA (from UniProt P14618 1-531) (enzyme) | binds | –
PFKM (Phosphofructokinase muscle type) (enzyme, UniProt P08237 1-780) MTHEEHHAAKTLGIGKAIAVLTSGGDAQGMNAAVRAVVRVGIFTGARVFFVHEGYQGLVDGGDHIKEATWESVSMMLQLGGTVIGSARCKDFREREGRLRAAYNLVKRGITNLCVIGGDGSLTGADTFRSEWSDLLSDLQKAGKITDEEATKSSYLNIVGLVGSIDNDFCGTDMTIGTDSALHRIMEIVDAITTTAQSHQRTFVLEVMGRHCGYLALVTSLSCGADWVFIPECPPDDDWEEHLCRRLSETRTRGSRLNIIIVAEGAIDKNGKPITSEDIKNLVVKRLGYDTRVTVLGHVQRGGTPSAFDRILGSRMGVEAVMALLEGTPDTPACVVSLSGNQAVRLPLMECVQVTKDVTKAMDEKKFDEALKLRGRSFMNNWEVYKLLAHVRPPVSKSGSHTVAVMNVGAPAAGMNAAVRSTVRIGLIQGNRVLVVHDGFEGLAKGQIEEAGWSYVGGWTGQGGSKLGTKRTLPKKSFEQISANITKFNIQGLVIIGGFEAYTGGLELMEGRKQFDELCIPFVVIPATVSNNVPGSDFSVGADTALNTICTTCDRIKQSAAGTKRRVFIIETMGGYCGYLATMAGLAAGADAAYIFEEPFTIRDLQANVEHLVQKMKTTVKRGLVLRNEKCNENYTTDFIFNLYSEEGKGIFDSRKNVLGHMQQGGSPTPFDRNFATKMGAKAMNWMSGKIKESYRNGRIFANTPDSGCVLGMRKRALVFQPVAELKDQTDFEHRIPKEQWWLKLRPILKILAKYEIDLDTSDHAHLEHITRKRSGEAAV | – | binding [1]: binds
PFKM-GFP 11 (enzyme, UniProt P08237 1-780) MTHEEHHAAKTLGIGKAIAVLTSGGDAQGMNAAVRAVVRVGIFTGARVFFVHEGYQGLVDGGDHIKEATWESVSMMLQLGGTVIGSARCKDFREREGRLRAAYNLVKRGITNLCVIGGDGSLTGADTFRSEWSDLLSDLQKAGKITDEEATKSSYLNIVGLVGSIDNDFCGTDMTIGTDSALHRIMEIVDAITTTAQSHQRTFVLEVMGRHCGYLALVTSLSCGADWVFIPECPPDDDWEEHLCRRLSETRTRGSRLNIIIVAEGAIDKNGKPITSEDIKNLVVKRLGYDTRVTVLGHVQRGGTPSAFDRILGSRMGVEAVMALLEGTPDTPACVVSLSGNQAVRLPLMECVQVTKDVTKAMDEKKFDEALKLRGRSFMNNWEVYKLLAHVRPPVSKSGSHTVAVMNVGAPAAGMNAAVRSTVRIGLIQGNRVLVVHDGFEGLAKGQIEEAGWSYVGGWTGQGGSKLGTKRTLPKKSFEQISANITKFNIQGLVIIGGFEAYTGGLELMEGRKQFDELCIPFVVIPATVSNNVPGSDFSVGADTALNTICTTCDRIKQSAAGTKRRVFIIETMGGYCGYLATMAGLAAGADAAYIFEEPFTIRDLQANVEHLVQKMKTTVKRGLVLRNEKCNENYTTDFIFNLYSEEGKGIFDSRKNVLGHMQQGGSPTPFDRNFATKMGAKAMNWMSGKIKESYRNGRIFANTPDSGCVLGMRKRALVFQPVAELKDQTDFEHRIPKEQWWLKLRPILKILAKYEIDLDTSDHAHLEHITRKRSGEAAV | – | binding (TPM4-GFP 1-10): binds
PFKM-GA (enzyme, UniProt P08237 1-780) MTHEEHHAAKTLGIGKAIAVLTSGGDAQGMNAAVRAVVRVGIFTGARVFFVHEGYQGLVDGGDHIKEATWESVSMMLQLGGTVIGSARCKDFREREGRLRAAYNLVKRGITNLCVIGGDGSLTGADTFRSEWSDLLSDLQKAGKITDEEATKSSYLNIVGLVGSIDNDFCGTDMTIGTDSALHRIMEIVDAITTTAQSHQRTFVLEVMGRHCGYLALVTSLSCGADWVFIPECPPDDDWEEHLCRRLSETRTRGSRLNIIIVAEGAIDKNGKPITSEDIKNLVVKRLGYDTRVTVLGHVQRGGTPSAFDRILGSRMGVEAVMALLEGTPDTPACVVSLSGNQAVRLPLMECVQVTKDVTKAMDEKKFDEALKLRGRSFMNNWEVYKLLAHVRPPVSKSGSHTVAVMNVGAPAAGMNAAVRSTVRIGLIQGNRVLVVHDGFEGLAKGQIEEAGWSYVGGWTGQGGSKLGTKRTLPKKSFEQISANITKFNIQGLVIIGGFEAYTGGLELMEGRKQFDELCIPFVVIPATVSNNVPGSDFSVGADTALNTICTTCDRIKQSAAGTKRRVFIIETMGGYCGYLATMAGLAAGADAAYIFEEPFTIRDLQANVEHLVQKMKTTVKRGLVLRNEKCNENYTTDFIFNLYSEEGKGIFDSRKNVLGHMQQGGSPTPFDRNFATKMGAKAMNWMSGKIKESYRNGRIFANTPDSGCVLGMRKRALVFQPVAELKDQTDFEHRIPKEQWWLKLRPILKILAKYEIDLDTSDHAHLEHITRKRSGEAAV | binds | –
